From PMC8881833 come the findings set out here.

These are yes or no findings as the source states them, for the method shown. Binding seen in cells or lysates may run through a third protein.

In this assay the target is HA-p62 mutant fragment (Δ230–440) (UniProt Q13501). Kind of assay: co-IP; 293 T cells transfected with HA-p62 wild type or a deletion mutant; IP with anti-HA, blots with anti-P62 and anti-P53.

As for “p53 (detected with anti-p53 in 293 T cells transfected with HA-p62 constructs) (from UniProt P04637 1-393)”, the binding entry is recorded as “no binding”.
